According to PubChem BioAssay AID504467 (National Center for Advancing Translational Sciences (NCATS), 2011):
Among all 330,000 compounds or so, about 7,700 (2.3%) were called active. Inconclusive means that the source gave no clear call. Such entries were picked first, then a sample of the others. The call rests on the fitted dose curve; in most records, active means well fitted inhibition curve with a large enough effect; inconclusive means small, poorly fitted or top-dose-only effect, or effect the other way; inactive means flat fitted curve, though single readings scatter. Where the call is inconclusive, the potency comes from a doubtful curve fit.

experiment: qHTS screen for small molecules that inhibit ELG1-dependent DNA repair in human embryonic kidney (HEK293T) cells expressing luciferase-tagged ELG1; details: HEK293T ELG1-luciferase reporter, luminescence, 16 h, DNA damage induced by 5-fluorouridine; activity change, negative = inhibition: at 46.1 µM (top of the series); further: nearly all actives have a fitted effect of over 55% in size
Outline: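 Luminescence from the luciferase reporter, measured 30 min after ONE-Glo reagent at room temperature, was the read-out. Beforehand, 2,000 cells per well were exposed for 16 hr at 37 °C to 5-fluorouridine together with compound or vehicle.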
On the % scale 0 is the no-effect control and ±100 the full control effect; potency means the concentration at half of the fitted maximal effect.

Structure (SMILES)	Potency	activity change, negative = inhibition
Cc1ccc(C(=O)NC(=S)Nc2ccc(N3CCN(C(=O)c4ccco4)CC3)cc2)cc1	inconclusive: 5.17 µM [inhibitor, partial curve, poor fit]	–
COc1ccc2nc(Nc3nc(C)c(C(C)=O)s3)sc2c1	inconclusive: 1.46 µM [activator, partial curve]	–
CC(C)c1ccc(S(=O)(=O)N2CCN(C(=O)c3ccco3)CC2)cc1	inconclusive: 18.3 µM [inhibitor, single point]	–
CCOC(=O)c1sc2nc(C)nc(NCc3ccccc3OC)c2c1C	inconclusive: 29.1 µM [inhibitor, single point]	–
CCOc1cc(N2CCOCC2)c(OCC)cc1NC(=O)COC(=O)c1ccc(Cl)cc1N	–	inactive: -11.2%
CC(C(=O)N1CCCC1)N(C)CC(=O)Nc1cccc(F)c1 (stereo not given)	inconclusive: 0.651 µM [activator, single point]	–
CN(c1cccc(Cl)c1)S(=O)(=O)c1cccc(C(=O)NC2=NCCS2)c1	inconclusive: 18.4 µM [inhibitor, single point]	–
COc1cccc(CNC(=O)C2CCN(Cc3cnn(-c4ccccc4)c3-n3cccc3)CC2)c1	inconclusive: 3.26 µM [inhibitor, partial curve]	–
COC(=O)C1CN(C(=O)COc2ccc(Cl)cc2C)c2ccccc2O1 (stereo not given)	–	inactive: 7.11%
O=C(NCc1cccs1)C(=O)NCC1OCCCN1S(=O)(=O)c1cc(F)ccc1F (stereo not given)	inconclusive: 18.3 µM [inhibitor, partial curve, poor fit]	–
CC(=O)N1N=C(c2ccccc2O)OC1(C)CC(=O)Nc1ccccc1 (stereo not given)	inconclusive: 14.6 µM [activator, single point]	–
CS(=O)(=O)c1nc(-c2ccco2)cc(C(F)(F)F)n1	inconclusive: 29.1 µM [inhibitor, single point]	–
COc1cccc(C(=O)N=c2sc3cc(S(C)(=O)=O)ccc3n2C)c1	inconclusive: 7.3 µM [activator, partial curve]	–
N/C(=N\c1nc2c(c(=O)[nH]1)CCC2)Nc1cccc(Cl)c1	inconclusive: 16.4 µM [inhibitor, partial curve]	–
O=C(CN1C(=O)c2ccccc2S1(=O)=O)c1ccccc1Cl	inconclusive: 0.58 µM [activator, full curve, poor fit]	–
CCOCCCNC(=O)c1cc(Sc2ccc(F)cc2)nc2ccccc12	active: 18.4 µM	–
CC(C)(C)C(=O)NCCc1nc2ccccc2n1CC(=O)c1ccc(Cl)cc1	inconclusive: 16.4 µM [inhibitor, partial curve]	–
NC(=O)c1sc2nc(N3CCOCC3)c3c(c2c1N)CCCC3	inconclusive: 23.1 µM [inhibitor, partial curve]	–
COc1ccc2nc(Cl)c(/C=N/Nc3ccccn3)cc2c1	inconclusive: 13 µM [activator, partial curve, poor fit]	–
O=C(OCCN1CCCC1=O)c1cncc(Br)c1	inconclusive: 29.1 µM [inhibitor, single point]	–
O=C(/C=C/c1ccccc1)NC(=S)Nc1ccc(CN2CCOCC2)cc1	inconclusive: 32.6 µM [inhibitor, single point]	–
O=C1CNC(=S)N1C1CCCCCC1	–	inactive: 14%

Structure (SMILES)	Potency	activity change, negative = inhibition
O=C(CN1C(=O)/C(=C/c2ccco2)SC1=S)NC1CCS(=O)(=O)C1 (stereo not given)	–	inactive: -2.57%
COc1ccc(-c2cc(-c3nnc(COC(=O)CC4CC5CCC4C5)o3)c3ccccc3n2)cc1OC (stereo not given)	active: 18.4 µM	–
CCn1c(Cl)c(C=O)s/c1=N\S(=O)(=O)c1ccccc1	inconclusive: 14.6 µM [inhibitor, single point]	–
CC(=O)c1c(C)[nH]c(C(=O)Nc2cccnc2)c1C	inconclusive: 23.1 µM [activator, partial curve, poor fit]	–
Cc1cc(C)c2nc(SCC(=O)Nc3cc(C)on3)c(C)cc2c1	inconclusive: 1.3 µM [inhibitor, partial curve]	–
CCOc1cc(C(=O)N=c2sccn2C)cc(Br)c1OC	inconclusive: 20.6 µM [inhibitor, single point]	–
CC(=O)N1c2ccccc2CCc2ccc(N)cc21	–	inactive: -12.4%
CNC(=S)N(CCc1ccccc1)Cc1cc2cc(OC)c(OC)cc2[nH]c1=O	inconclusive: 32.6 µM [inhibitor, partial curve, poor fit]	–
C=CCN1C(=O)C(CCCC)NC1=S (stereo not given)	–	inactive: 3.7%
COc1ccc(C(CNC(=O)c2cccc(S(=O)(=O)N3CCCC(C)C3)c2)N(C)C)cc1 (stereo not given)	–	inactive: 1.72%
O=S(=O)(Nc1ccccc1Cl)c1cc(NC(=S)NCCN2CCOCC2)ccc1Cl	inconclusive: 20.6 µM [inhibitor, single point]	–
COc1cc(/C=N/NC(=O)c2ccncc2)ccc1OCC(=O)Nc1ccc(C)c(C)c1	inconclusive: 20.6 µM [inhibitor, single point]	–
COc1cccc(S(=O)(=O)Nc2ccc(C(=O)N3CCN(C(=O)c4ccco4)CC3)cc2)c1	active: 18.4 µM	–
COc1ccc(C(C)(C)C)cc1NC(=O)c1cc(S(=O)(=O)N(C)C)ccc1N1CCCC1	inconclusive: 16.4 µM [inhibitor, partial curve]	–
O=C(Nc1ccc(N2CCCC2)cc1)c1cc(Cl)ccc1Cl	–	inactive: -0.745%
Cc1ccc(NC(=O)C2CCCN(S(=O)(=O)c3ccc(-n4cnnn4)cc3)C2)cc1 (stereo not given)	inconclusive: 29.1 µM [activator, single point]	–
C=CCC(NCc1ccccc1)c1ccccc1 (stereo not given)	–	inactive: 20.8%
Cn1cccc1CC(=O)N/N=C/C(Cl)=C/c1ccccc1	inconclusive: 20.6 µM [activator, single point]	–
CCOC(=O)c1cc2cc(OC)ccc2[nH]1	inconclusive: 13 µM [activator, partial curve]	–
CCc1ccc(CCN2C(=O)c3ccccc3C2=O)nc1	inconclusive: 25.9 µM [activator, partial curve, poor fit]	–
Cc1noc(C)c1C(=O)Nc1nc(-c2cccs2)cs1	inconclusive: 11.6 µM [activator, partial curve]	–
COc1ccc(NC(=O)c2ccccc2[N+](=O)[O-])cc1OC	inconclusive: 29.1 µM [activator, single point]	–

Copied from the entries so far (four entries):
Structure (SMILES)	Potency	activity change, negative = inhibition
COc1ccc(-c2cc(-c3nnc(COC(=O)CC4CC5CCC4C5)o3)c3ccccc3n2)cc1OC (stereo not given)	active: 18.4 µM	–
CCn1c(Cl)c(C=O)s/c1=N\S(=O)(=O)c1ccccc1	inconclusive: 14.6 µM [inhibitor, single point]	–
CC(=O)c1c(C)[nH]c(C(=O)Nc2cccnc2)c1C	inconclusive: 23.1 µM [activator, partial curve, poor fit]	–
Cc1cc(C)c2nc(SCC(=O)Nc3cc(C)on3)c(C)cc2c1	inconclusive: 1.3 µM [inhibitor, partial curve]	–

Next part.

Structure (SMILES)	Potency	activity change, negative = inhibition
CC(=O)NS(=O)(=O)c1ccc(NC(=O)CSc2ccc(C)cc2)cc1	–	inactive: 4.23%
Cc1ccc(N2NC(=O)/C(=C\c3cc4c(cc3[N+](=O)[O-])OCO4)C2=O)cc1C	inconclusive: 29.1 µM [inhibitor, single point]	–
CC(/C=N/NC(=O)c1cccs1)=C\c1ccccc1	inconclusive: 3.26 µM [activator, partial curve]	–
CCCn1c(CNS(=O)(=O)c2ccc(C)cc2)nc2ccccc21	–	inactive: -0.116%
COCc1nc2oc3ccccc3c(=O)c2cc1C(=O)OC	inconclusive: 16.4 µM [activator, partial curve]	–
O=C(NCC1CCCO1)C(c1ccc(F)cc1)N(C(=O)Cn1nnc(-c2ccc(F)cc2)n1)c1cccc(O)c1 (stereo not given)	inconclusive: 20.6 µM [inhibitor, single point]	–
COc1cccc(OCc2cc(C(=O)N3CCCC3c3ccccn3)no2)c1 (stereo not given)	inconclusive: 20.6 µM [activator, partial curve]	–
CN1/C(=C\C=C2/SC(=S)NC2=O)C(C)(C)c2ccccc21	inconclusive: 11.6 µM [inhibitor, partial curve]	–
Cc1ccc(-c2noc(CSc3nc(N)cc(N)n3)n2)cc1	inconclusive: 11.6 µM [activator, partial curve]	–
CC(C)c1ccc(NC(=O)N2CCN(S(=O)(=O)c3ccccc3)CC2)cc1	inconclusive: 23.1 µM [inhibitor, partial curve, poor fit]	–
Cc1cc(-c2ccccc2)nc(N(C)NC(=O)c2ccc(Cl)cc2)c1S(C)(=O)=O	inconclusive: 32.6 µM [inhibitor, single point]	–
C#CCn1cc(/C=N/Nc2nc3ccccc3[nH]2)c2ccccc21	inconclusive: 11.6 µM [activator, single point]	–
Cc1ccc(OCC(=O)c2cc(C)n(C3CC3)c2C)c([N+](=O)[O-])n1	inconclusive: 10.3 µM [activator, partial curve]	–
Cc1ccc(Nc2c([N+](=O)[O-])c(=O)oc3ccccc23)cc1	inconclusive: 23.1 µM [inhibitor, single point]	–
CCCCCC(=O)N1CC2(CC(c3cccc(NC(=O)[C@@H]4CCC(=O)N4)c3)=NO2)C[C@@H]1C(N)=O (stereo not given in full)	inconclusive: 7.3 µM [activator, partial curve, poor fit]	–
Cc1ccc(C(=O)Nc2scc(-c3ccccc3)c2C(=O)O)o1	inconclusive: 23.1 µM [activator, single point]	–
COC(=O)c1ccc(Cl)c(NC(=O)CN(c2ccccc2)S(=O)(=O)c2ccc(OC)cc2)c1	inconclusive: 20.6 µM [inhibitor, partial curve, poor fit]	–
CC(C)c1ccc(NC(=O)c2cccc(NC3=NC4CS(=O)(=O)CC4S3)c2)cc1 (stereo not given)	inconclusive: 20.6 µM [activator, single point]	–
COc1ccc(OC2CCN(S(=O)(=O)c3ccc(OC)cc3)CC2)cc1	active: 14.6 µM	–
COc1ccc(CCN(C)CC(O)COC(c2ccc(F)cc2)c2ccc(F)cc2)cc1OC (stereo not given)	inconclusive: 11.6 µM [inhibitor, partial curve, poor fit]	–
CC[C@@]1(C(=O)OC)N[C@H](CN(C)C(=O)Nc2ccc(C(F)(F)F)cc2)[C@@H]2C(=O)N(C)C(=O)[C@@H]21	–	inactive: 0.61%
